Assay results as given in PubChem BioAssay AID1794845 (National Center for Advancing Translational Sciences (NCATS), 2023).
Fewer than 10 of roughly 6,900 compounds were called active. Calls follow the shape of the dose curve; as a rule, active = well fitted curve in the direction sought with a large enough effect; inconclusive = small, poorly fitted or top-dose-only effect, or another doubt; inactive = no such curve, though single readings can be large or run the other way. The list shows a part of the results.

Protein sequences, listed by entry. Tags and fused reporters are not part of them. Lines headed by an entry give the natural chain unless they say otherwise; changes in a name come on top.
UniProt C7C422: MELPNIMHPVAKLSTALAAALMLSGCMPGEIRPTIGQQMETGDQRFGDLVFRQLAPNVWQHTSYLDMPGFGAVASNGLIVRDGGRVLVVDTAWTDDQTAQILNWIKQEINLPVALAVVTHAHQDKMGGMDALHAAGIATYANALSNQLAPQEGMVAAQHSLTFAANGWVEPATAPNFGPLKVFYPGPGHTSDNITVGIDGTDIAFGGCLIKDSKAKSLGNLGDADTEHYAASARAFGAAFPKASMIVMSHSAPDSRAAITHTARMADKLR

Biological target: Metallo-beta-lactamase type 2 (Klebsiella pneumoniae) (UniProt C7C422)
Assay: qHTS to identify inhibitors of the New Delhi Metallo-beta-lactamase (NDM): primary screen against the NCATS Gemini Collection; also: % of control where 0% means no effect
Details: NDM-1 enzyme, meropenem hydrolysis, absorbance 300 nm; at 38.4 µM (top of the series) unless noted
Method in brief: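 NDM-1 at 2 nM final in 50 mM HEPES pH 7.0, 1 uM ZnSO4, 0.01% Tween20, preincubated >30 min with compound. Meropenem 50 uM final added; absorbance at 300 nm after 30 min.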

Activity % (negative = inhibition), inactive:
CC(C)c1cc(C(=O)N2C[C@@H](C)[C@](O)(C3CC3)C2)nc2ncnn12 15.3%
O=C(Nc1cc(C2CC2)nn1-c1ccccc1)c1ccc(C(F)(F)F)cc1 15.5%
CCOc1ccc(CN2CCC(c3nnc(Cn4cncn4)n3C)CC2)cn1 -10.3%
CCN1C(=O)CCc2cc(NS(=O)(=O)c3cn(C)c(C)n3)ccc21 0.117%
CN(Cc1ccc(-n2cccn2)cc1)Cc1nc(Cc2cccc(F)c2)no1 -7.28%
CCC(C(=O)N1CCc2onc(-c3ccc(F)c(F)c3)c2C1)n1cccn1 (centres undefined) -11.8%
Cc1ccccc1N(C)C1CN([S+](=O)([O-])c2c(C)noc2C)C1 2.62%
CCO[C@H]1CN(C2CCN(c3ccc4c(c3)CCC4)CC2)C[C@@H]1O -1.85%
OCC1CN(c2ccncn2)CC12CCN(Cc1cc(F)c(F)c(F)c1)CC2 (centres undefined) 3.17%
COc1cccc2c1OCCCN(Cc1cn(-c3ccccc3)nn1)C2 -5.51%
O=C(CC[C@@H]1CNC(=O)[C@@H]2C[C@H](NCc3ccccn3)CN12)NCc1ccccc1 3.11% [at 57.5 µM]
CCC(CC)NC(=O)[C@@H]1COCC(=O)N1Cc1ccc(OC)cc1OC -2.73%
COc1ccc(CN2CCCC3(Cc4ccccc4CNC3=O)C2)c(OC)n1 (centres undefined) 11.1%
COCCNC(=O)N1CCCC(CNC(=O)c2cccc3ccccc23)C1 (centres undefined) 3.38%
CS(=O)(=O)c1ccc(OCC2(CNCc3cccc(C(F)(F)F)c3)C[C@@H](O)[C@@H](O)C2)cc1 (some centres undefined) -1.18%
COC1C(=O)N(c2cccc(F)c2)C12CCN(S(=O)(=O)c1cccs1)CC2 (centres undefined) 7.57%
CCc1nc(NCCOC)ncc1C(=O)O 19%
COc1ccc(OCC(O)CN2CCC(=O)N(CC3CC3)Cc3cc(OC)ccc32)cc1 (centres undefined) 2.48%
O=C(Nc1ccccc1Cl)N1CCC(n2cc(C3CCCC3)nn2)CC1 -0.321%
COC(=O)NCC(=O)N1CC[C@@H]2[C@@H](CCC(=O)N2CCc2ccccc2)C1 -4.62%
COCC(=O)N1CC2(CCCCC2)CC1COc1ccc(OC)cc1 (centres undefined) 5.86%
O=c1n(-c2ccncc2)nc2n1CCN(Cc1ccsc1)C2 1.1% [at 57.5 µM]
Cc1ncsc1CN(Cc1ccccc1)C(=O)c1cn(CCC2CCCCC2)nn1 -2.52%
CC(C)NS(=O)(=O)c1ccc2c(c1)nc(-c1cc(C(C)(C)C)[nH]n1)n2C(C)C 29.2%
CN1C[C@@H](NC(=O)Nc2ccccc2)C[C@H]1c1nc(Cc2ccccc2)no1 7.9% [at 57.5 µM]
Cc1nn(CCO)cc1-c1c(-c2ccccc2)ncn1CC(=O)O 23.9%
COc1cccc(CN2C(=O)CCCCC2C(=O)NCCc2c[nH]c3ccc(OC)cc23)c1 (centres undefined) -5.23%
COCC(=O)Nc1ncncc1-c1noc([C@@H]2CCCN2Cc2cc(OC)c(OC)c(OC)c2)n1 7.1%
O=C(NC1CCCC1)N[C@@H]1C[C@H](Cn2cc(C3CC3)nn2)[C@@H](O)[C@H]1O 22.7% [at 57.5 µM]
CCc1nc(C)c(C(=O)N2CC[C@@](O)(COC)C(C)(C)C2)s1 5.18%
O=C(c1cccs1)N1CC[C@H]2COC(=O)N2c2cc(F)ccc2C1 -0.338% [at 57.5 µM]
COc1ccccc1CC(=O)Nc1cccn2nc(C(C)C)nc12 4.57%
O=S(=O)(Cc1ccccc1)N1CCCC(Cc2noc(-c3cccnc3)n2)C1 (centres undefined) 1.01%
O=C(CC1CCCC1)N1CC2CC(C1)[C@H]1CCCC(=O)N1C2 (some centres undefined) -2.15%
Cc1nc(NCCn2ncc3ccccc3c2=O)cc(C2CC(O)C2)n1 (centres undefined) -1.52%
Cc1ccc([C@@H]2CN(C(=O)c3c(-c4ccccc4)noc3C)C[C@H]2N(C)C)cc1 3.5%
CC(C)(C)C(=O)N1CCC(N2CCCC(C(=O)NCc3ccccc3)C2)CC1 (centres undefined) 0.229%
Cc1ccc2c(c1)N(CC(=O)N1[C@@H]3CC[C@H]1CNC(=O)C3)C(=O)CO2 25.6%
O=C1NCCOCCCN(C(=O)NCCc2ccccc2)[C@H]2CCCC[C@@H]12 7.97%
Cc1ccc(C(=O)N2CCCCCCNC(=O)[C@@H]3C[C@@H](c4nc(Cc5ccccc5)no4)C[C@@H]32)s1 0.811%
O=C(O)C(c1ccc2c(c1)OCCO2)N1CCCN(c2ncccn2)CC1 (centres undefined) -2.88%
O=C(O)c1ccc(CN2CCC[C@H]2c2nc(-c3ccc(F)cn3)no2)cc1 17% [at 57.5 µM]
CN1CC[C@H]2CN(C(=O)C3(Cn4ccnc4)CC3)C[C@@]2(C(=O)O)C1 3.04%
O=C(c1cn(C2CNC2)nn1)N1CCOCC1 -7.99%
COCCN1CC(C(=O)NCCOc2ccccc2)CCC1=O (centres undefined) 2.59%
CC(=O)N[C@@H]1CCNC[C@@H]1c1nc(-c2ccccc2)no1 0.382%
c1ccc(-c2cc3c(cn2)NCCN(Cc2ccccn2)C3)cc1 16.8% [at 57.5 µM]
O=C1c2cccnc2OC(COc2ccccc2)CN1Cc1cccs1 (centres undefined) 5.15% [at 16.1 µM]
Cn1nc(C2CCCN2)c2c(C(=O)N3CCOCC3)cc(C3CC3)nc21 (centres undefined) 4.87%
CCC(C)NC(=O)Cn1nc(C)c2sc(-c3ccccc3)nc2c1=O (centres undefined) -0.811%
CCCCS(=O)(=O)N1CCC(F)(c2nc(-c3ccccc3)no2)CC1 0.41%
COc1cccc(-c2ccc(C(=O)N3CCC(NC(=O)N(C)C)CC3)cc2)c1 0.185%
COc1ccc(C(=O)N2CCC(N3CCCC3=O)CC2)cc1 -2.85% [at 57.5 µM]
O=S(=O)(c1cc(F)ccc1F)N1CCC(n2cc(CCCO)nn2)CC1 5.41%
O=C(c1ccc2ccccc2n1)N1C[C@@H](CO)[C@H](c2ccncc2)C1 0.775%
O=C(NCCOc1ccccc1)[C@@H]1C[C@H](c2ccc(F)cc2)N([S+](=O)([O-])C2CC2)C1 11.5% [at 57.5 µM]
CC(O)c1cc2n(n1)CCN(S(=O)(=O)c1ccc3c(c1)NC(=O)CO3)C2 (centres undefined) 10.2%
COCCOCc1nc(C2CCN(C(=O)Nc3ccc(C(=O)OC)cc3)CC2)no1 9.06%
CC(C)CCN1CCC2(CC1)COc1ccccc1C(=O)N2 -1.82% [at 57.5 µM]
CC(C)CNC(=O)c1cc(-c2ccsc2)nc2c1cnn2C 84.3% [at 57.5 µM]
COCC1CCN(CC2(O)CCCN(Cc3cccc(F)c3F)C2=O)CC1 (centres undefined) 37.3%
O=C(CC[C@H]1NC(=O)c2ccccc2NC1=O)Nc1nnc(C2CC2)s1 4.25%
Cc1nnc([C@@H]2CC(F)(F)CN2C(=O)c2cccc3[nH]ccc23)o1 18.1%
O=C(Nc1ccccc1)NC1CCCN(c2ccc3nnc(-c4ccccc4)n3n2)C1 (centres undefined) -0.527%
COC(=O)c1ccccc1NC(=O)Cn1nc2n(c1=O)CCCCC2 1.95%
Cc1nc2c(OCC(=O)OC(C)(C)C)cccn2c(=O)c1-c1cc(C)n(-c2cccc(F)c2)n1 9.08%
COc1ccc(S(=O)(=O)N2CCc3c(C(=O)NCc4ccncc4)cccc32)cc1 4.27%
O=C(NCC1CN(CC2CC2)CC12CN(c1ccccc1)C2)Nc1ccccc1 (centres undefined) -0.723% [at 57.5 µM]
COc1ccc(CC(=O)Nc2ccc(N3CCC(NCCc4c(C)n[nH]c4C)CC3)cc2)cc1 4.42%
COc1ccc(CNC(=O)c2ccc(CN3C(=O)NC4(CCOCC4)C3=O)cc2)cc1 0.871%
CC(=O)N1Cc2ccccc2NC(=O)C12CCNCC2 0.554%
CCOCCn1nc(C)cc1C(=O)N1CC(C)(C)[C@@](C)(O)C1 -0.494%
COc1cccc(-c2cccc(C(=O)N3CCN(C(=O)Cc4cccc(Cl)c4)CC3)c2)c1 8.63%
COc1ccc(C(=O)N[C@@H]2c3ccccc3C3(CCNCC3)[C@H]2OC)c(C)c1 -0.104%
O=C1CCN(Cc2ccncc2)CCCC(CO)CCN1 (centres undefined) -7.81%
CCOC(=O)C1CCCN(C(=O)C2CC(c3ccc(F)c(C)c3)CN(C(=O)NC(C)C)C2)C1 (centres undefined) 27%
Cc1noc(C)c1S(=O)(=O)N(C)C1CCOc2ccccc21 (centres undefined) 2.54% [at 57.5 µM]
COC[C@H]1C[C@@H](NCc2cccc3c2OCO3)[C@H](O)[C@@H]1O 1.23% [at 57.5 µM]
COc1cccc(NC(=O)CCC2CCN(C(=O)C(C)n3cncn3)CC2)c1 (centres undefined) -2.79%
O=C(NCc1nc(-c2cccc(F)c2)c(-c2ccccn2)[nH]1)C1CCOC1 (centres undefined) 18.2%
COc1cccc(CN2CCCC(O)(CN3CCC(C)CC3)C2=O)c1 (centres undefined) 7.84%
COC(=O)N(C)Cc1cccc(N2CCN(C(=O)OC(C)(C)C)CC2)c1F -0.0329%
COc1ccc(CCC(=O)N2CCCC(c3nc(-c4ccccc4)no3)CCNC(=O)CC2)cc1 (centres undefined) -2.67%
Cc1noc([C@H]2CCN(CC3CC3)C[C@H]2NC(=O)C2CCOCC2)n1 -1.44%

Quoted at random: 4 entries already listed
Activity % (negative = inhibition), inactive:
COc1ccccc1CC(=O)Nc1cccn2nc(C(C)C)nc12 4.57%
OCC1CN(c2ccncn2)CC12CCN(Cc1cc(F)c(F)c(F)c1)CC2 (centres undefined) 3.17%
CC(C)CCN1CCC2(CC1)COc1ccccc1C(=O)N2 -1.82% [at 57.5 µM]
COc1ccc(C(=O)N[C@@H]2c3ccccc3C3(CCNCC3)[C@H]2OC)c(C)c1 -0.104%
